PMC11091243 (Frontiers in Immunology, 2024)
One purity is given for all peptides; the source may state it once.

assay: peptide made by a vendor (Fmoc solid-phase peptide synthesis); conditions: whole synthesis

Row | Substance | final purity (method not given)
1 | SHTSWILYGETGWGGGSK-NH2 | >98%
2 | SVSVSHFQKVWVVGGGSK-FITC-NH2 | >98%
3 | SMQYADHPVNTGGGGSK(PEG8)-NH2 | >98%
4 | SVSVSHFQKVWVVGGGSK-NH2 | >98%
5 | SMQYADHPVNTGGGGSK-NH2 | >98%
6 | SHESWLPAYVLGSGGGSK-FITC-NH2 | >98%
7 | SHESWLPAYVLGSGGGSK-NH2 | >98%
8 | SVSVSHFQKVWVVGGGSK(PEG8)-NH2 | >98%
9 | SMQYADHPVNTGGGGSK-FITC-NH2 | >98%
10 | SHTSWILYGETGWGGGSK-FITC-NH2 | >98%
